Patent CN117946264A
These are yes or no findings as the source states them, for the method shown. Some results given as binding are weak or reduced against the parent protein; the word gives no strength.

Sequences of proteins named here, by UniProt entry; tags and fusion partners are left off. A change or cut given only in a name is not applied to a line headed by its entry.
UniProt P10636: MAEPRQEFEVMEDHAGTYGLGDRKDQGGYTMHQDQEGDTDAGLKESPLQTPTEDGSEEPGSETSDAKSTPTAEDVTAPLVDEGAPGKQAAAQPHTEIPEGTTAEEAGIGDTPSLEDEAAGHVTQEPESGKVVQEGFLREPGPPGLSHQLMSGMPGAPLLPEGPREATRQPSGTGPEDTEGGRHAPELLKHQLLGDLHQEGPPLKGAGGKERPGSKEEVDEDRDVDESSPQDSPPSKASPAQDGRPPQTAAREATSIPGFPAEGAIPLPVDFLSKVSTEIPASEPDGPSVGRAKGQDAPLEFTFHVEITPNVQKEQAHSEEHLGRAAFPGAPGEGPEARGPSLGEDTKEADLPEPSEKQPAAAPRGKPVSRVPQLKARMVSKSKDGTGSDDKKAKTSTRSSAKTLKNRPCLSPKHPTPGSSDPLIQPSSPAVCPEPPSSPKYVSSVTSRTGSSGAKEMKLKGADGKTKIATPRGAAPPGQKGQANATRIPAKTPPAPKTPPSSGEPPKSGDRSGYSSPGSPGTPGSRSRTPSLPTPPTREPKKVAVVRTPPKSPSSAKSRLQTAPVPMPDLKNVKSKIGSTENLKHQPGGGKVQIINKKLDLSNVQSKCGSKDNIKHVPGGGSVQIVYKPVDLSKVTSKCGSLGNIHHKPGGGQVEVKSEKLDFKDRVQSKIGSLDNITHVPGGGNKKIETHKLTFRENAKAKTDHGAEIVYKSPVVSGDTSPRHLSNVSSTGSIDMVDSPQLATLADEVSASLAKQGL

Molecular target: 后段Tau蛋白(总Tau蛋白第308~441位氨基酸) (human) (UniProt P10636)
Assay: indirect ELISA, hybridoma supernatant on coated rear Tau fragment

B1: 后段Tau蛋白单克隆抗体(冻存编号为37.1) (antibody, V domains shown)
VH: EVRLVESGGGLVQPGGSLRLSCATSGFTFSDFYMEWVRQSPGKRLEWIAASRDKTNDYTTEYNTSVKGRFIVSRDTSQSILYLQMNALRAEDTAIYYCARDAWFAYWGQGTLVTVSA
VL: DIVITQDELSNPVTSGESVSISCRSSKSLLYKDGKTYLNWFLQRPGQSPQLLIYLMSTRASGVSDRFSGSGSGTDFTLEISRVKAEDVGVYYCQQLLEYPVTFGAGTKLELK
binding: binds
